The target of this assay is T1, KIM1 precipitated with anti-KIM1 in the DR5 domain mapping (human) (UniProt Q96D42).
T1 sequence: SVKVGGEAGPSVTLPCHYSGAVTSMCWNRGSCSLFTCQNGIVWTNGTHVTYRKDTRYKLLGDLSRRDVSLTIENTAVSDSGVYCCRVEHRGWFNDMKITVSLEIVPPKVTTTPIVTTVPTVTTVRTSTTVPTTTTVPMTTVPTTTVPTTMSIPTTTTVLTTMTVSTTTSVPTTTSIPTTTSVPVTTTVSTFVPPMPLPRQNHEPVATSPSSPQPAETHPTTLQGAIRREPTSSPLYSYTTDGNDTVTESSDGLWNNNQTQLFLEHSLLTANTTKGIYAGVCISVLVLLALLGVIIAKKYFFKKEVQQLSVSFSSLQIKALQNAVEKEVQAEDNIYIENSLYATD
Nature of the assay: co-IP; IP with anti-KIM1 or non-specific IgG; WT and mutants of DR5-Flag detected with anti-Flag; cells not given.

Results are given in words; binding and its absence hold for the method and conditions named. Binding seen in cells or lysates may run through a third protein. Binding can be weak; no strength is given.

As for “Flag-tagged DR5 ΔCytD (human) (domain or fragment)”, the binding result is “binds”. In the case of “Flag-tagged DR5 ΔTMH (human) (domain or fragment)” it was “binds”; in that of “Flag-tagged DR5 ΔECD (human) (domain or fragment)”, “no binding”.
